According to patent US20050153366, “Protein-protein interaction antagonist screening libraries based upon 1,4-disubstituted naphthalenes and related scaffolds” (published 2005):
Construct, isoform or probe ends are uncertain for at least one entry.

Test system: HOXA1 (residues 192-288)/PBX1 (residues 233-319) complex
Test: EMSA
Settings: ternary complex formed; 10 mM HEPES pH 7.9, 1 mM EDTA, 135 mM NaCl, poly dIdC, about 22 C; disrupted by small molecules (compound 31 IC50 65 uM, compound 15 IC50 173 uM); purified recombinant protein; label: 32P (Klenow fill-in with alpha-32P-dCTP)

Sequence: CTCTCCTTTTGATTGATTAA / AGAGCTTAATCAATCAAAAGG [HOXPBX-CT probe]
- binding result: binds
